In the supplement of paper PMC3334620:
Whole data set: some 33,000 sequences, median “E-score (-0.5 to 0.5)” near -0.016, cut for the highest 2% near 0.3. This is one part of the list.

Target: T1, Yer184c (UniProt P39961)
T1 sequence: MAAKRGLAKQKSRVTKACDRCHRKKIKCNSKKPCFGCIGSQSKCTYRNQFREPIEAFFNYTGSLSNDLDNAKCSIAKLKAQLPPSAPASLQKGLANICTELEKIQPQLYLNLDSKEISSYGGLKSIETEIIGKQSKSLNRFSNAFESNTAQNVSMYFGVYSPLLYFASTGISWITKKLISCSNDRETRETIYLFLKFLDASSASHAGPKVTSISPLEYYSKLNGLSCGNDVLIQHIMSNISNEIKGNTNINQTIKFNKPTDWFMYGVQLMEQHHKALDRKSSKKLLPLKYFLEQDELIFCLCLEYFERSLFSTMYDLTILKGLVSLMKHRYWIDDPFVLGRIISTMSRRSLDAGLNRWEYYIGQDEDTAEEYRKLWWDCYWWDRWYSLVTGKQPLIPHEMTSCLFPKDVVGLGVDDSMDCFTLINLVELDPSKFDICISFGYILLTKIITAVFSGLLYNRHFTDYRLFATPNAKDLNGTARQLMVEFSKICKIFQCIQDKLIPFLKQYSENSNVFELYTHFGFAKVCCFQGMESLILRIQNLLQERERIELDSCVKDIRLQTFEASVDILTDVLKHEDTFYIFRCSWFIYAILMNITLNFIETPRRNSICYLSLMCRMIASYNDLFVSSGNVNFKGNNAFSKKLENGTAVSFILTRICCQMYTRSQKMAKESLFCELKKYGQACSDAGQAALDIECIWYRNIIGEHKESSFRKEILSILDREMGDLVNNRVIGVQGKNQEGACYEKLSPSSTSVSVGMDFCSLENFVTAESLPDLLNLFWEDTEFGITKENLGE
Experiment: PBM E-score (8-mer binding enrichment) (E-score (-0.5 to 0.5)); higher = stronger / more preferred TF binding
Settings: protein concentration: 100 nM; construct: GST-full length
Outline: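 Each ungapped eight-base word and its reverse complement, pooled, received an E-score from the Universal PBM Analysis Suite. Underlying scans, normalised with masliner, recorded fluorescent anti-GST bound to GST-tagged yeast transcription factors. These were applied at about 100-200 nM to universal all-10-mer Agilent arrays double-stranded by primer extension.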

Sequence	PBM E-score
GATCTAGA	-0.0186
ACATCCAT	-0.0271
AACTAAGA	0.084
CCCAAAGA	0.0166
CAGGTGTC	-0.0925
TACGGACA	0.196
AGAATGTC	-0.0589
ATCTTGTA	0.033
TACACGCA	-0.224
TAAGCCAA	0.0287
ACACAATA	0.0432
GACAGTGA	-0.0138
CTTCGATC	0.0337
TGCACACA	-0.0766
CATGGCCG	0.0582
CACAACGG	-0.0669
ATGGAAGG	-0.078
GATCCGTA	0.17
CCTTGAGC	0.018
GAACCTGC	0.0118
AAGCCGTC	0.187
ACTGTCAT	-0.0219
AGATTTAC	0.0377
AAACAGGC	-0.131
GGAGAGAA	0.0818

Sequence	PBM E-score
AAGAACAA	0.269
ATGGTACC	-0.119
ACCGCTCC	0.00452
AACAGTCA	-0.191
ACAGTCAT	-0.136
CGGTAACC	0.155
AGTGGCAC	-0.152
GTTCAAAC	0.217
ATGAAGAG	0.11
ATGACTCA	-0.0915
CTTCGAAA	0.0621
AAGTGAGG	-0.173
CAAGAATA	0.231
ATCTACGC	0.166
TGGTAGAA	0.0215
TAAAAGAA	0.177
CAGGCGGG	-0.181
CCCTACCG	-0.295
CATACTGC	0.0531
AAATCTAG	-0.156
ATGCCAAC	-0.0847
CAACGATA	0.123
AGGAGTCG	-0.257
GCGACTGA	-0.137
GTGTTAGA	0.059

Sequence	PBM E-score
CAGCACAG	-0.022
AGATCCGC	0.0835
GCTGGCAA	-0.0189
TCAGGCGA	-0.0392
ATTAGTGC	0.168
AATAGGGA	-0.238
CACAGCGG	-0.0937
GAACAATA	0.313
CCTGGATC	-0.233
ATCTTCTC	0.0325
CTGCGCAG	-0.0745
CTCACGCA	0.164
CCATGCCC	-0.108
ACTTGTTA	0.0716
ACCCGCAA	-0.125
CGAACCTA	0.111
ATTATAAC	0.104
CTGGGCCA	-0.301
CCTGCCCG	-0.0541
AGAATGTG	-0.217
GTGAGATA	0.0346
AGACTAAA	0.0357
CACGCCAG	-0.141
CCACGAAG	-0.191
ATCCGAGC	0.219

Sequence	PBM E-score
CTTTACCA	-0.253
CCGTGCCG	0.312
CGTACAAA	0.126
ACTATCTA	0.141
ATTCCGTG	0.313
CAGAAGAG	-0.142
CCGTCGCG	-0.021
AAATTTGT	0.213
GAGAAGAC	-0.0805
AGGAAGAT	0.0204
GGTGTTTA	0.0427
CCGAGAGG	0.0688
GTTCGGGA	0.226
CAGCCTCG	-0.0314
GAGCAAGA	0.052
CGCTCAAC	-0.0292
ACATTCGA	0.035
ATAATAAT	0.207
AGCAGGAT	-0.0872
ACCCCCGC	-0.114
GAACAGAC	0.18
GTTGGGAA	-0.0472
GGGATATA	0.0967
AGCCGGGC	0.172
CGTAGGAG	-0.0334

Sequence	PBM E-score
ACTGGTCC	-0.111
ATGTTTAC	0.0534
CACGTCAG	-0.318
ATAACTAA	0.14
AAACCTTG	-0.189
GGAGGTGA	0.0707
TCCATCAA	0.115
GATGCTTA	-0.0141
AGTCAACC	-0.18
GGCTGCAC	-0.0146
GGCATTAA	0.0804
AAGTATCT	0.0706
GCGCAGAA	0.0898
GACAGGCA	-0.108
ACTGAAGT	0.0383
GTGGGTAA	-0.172
ATTCGATC	0.111
CGGTGTAA	0.151
AAAGTATT	0.047
CACGCGCC	-0.00729
GGTATAGA	-0.0742
GAGCAGGC	-0.1
AGCCCCGA	-0.181
ATCATAAG	0.13
TAGGCCAA	0.0434

A different layout for some results above.
Sequence | PBM E-score
ATGTTTAC | 0.0534
ATAACTAA | 0.14
AAGTATCT | 0.0706
ACTGAAGT | 0.0383
GGTATAGA | -0.0742
AGCCCCGA | -0.181
TAGGCCAA | 0.0434

(further entries)

Sequence	PBM E-score
AGCACGGC	0.148
ACAGGAGT	-0.0872
GAGTCCCC	-0.342
ATCCAATC	-0.0526
ACTTAGAA	-0.0208
TACGCTGA	0.0765
GTCAGAGA	-0.0567
TTATGGAA	0.0949
ATGCAAAC	-0.14
ATTGACGA	0.114
CAGCCTGA	-0.0443
CCCATAAA	0.024
ACTTTTAC	0.283
ATCCGGAG	0.398
CGCCTGTA	-0.0648
AATAAATG	0.174
AAACAATG	0.0542
GTGGGCTA	-0.175
AGAAGTCG	-0.241
CATGTCTA	-0.134
ACATGCAT	-0.165
CCCACCGG	0.123
GTGGATGA	-0.134
AGAAATAA	0.19
GCCATAGA	-0.264

Sequence	PBM E-score
AATGGTGA	-0.0907
AATCTTAA	0.0382
CGGCGAAA	0.35
CGGGCTGA	-0.0945
AGACTTAA	0.0589
ATCAAAGC	0.149
TAGCTACA	0.0414
TAGCGAAA	0.119
ACAGCTGT	0.0316
TCACCGGA	0.294
GGAGAAAC	0.0894
CGCGGCGC	0.259
ACATAGAT	0.0877
CAAGAGAC	-0.151
ATCGCTGA	0.0467
CCCCACAC	-0.353
CCCCTTTC	-0.195
ATGTGATG	-0.143
CAAACGGA	0.267
ACACTGCG	-0.0646
CTACCTCC	-0.0708
AAGGAGGG	-0.149
AAAGTGCA	-0.0658
ACCCATAC	-0.199
ACTGCCCT	-0.155

Looked up above.
For PBM E-score, CGCGGCGC is entered as 0.259
For PBM E-score, CAAGAGAC is entered as -0.151
For PBM E-score, TAGCGAAA is entered as 0.119
For PBM E-score, CTACCTCC is entered as -0.0708

Later entries

Sequence	PBM E-score
AAAAAGGC	0.121
GACTTGTA	-0.0964
TCCAGACA	-0.14
AGCCCAGG	-0.268
CCTCCTCA	-0.206
AACTGAGT	0.112
AGACACGC	-0.0415
AATGGTAT	-0.0602
GAGACGCC	-0.0631
GTAACTCA	-0.0122
GTCATGAC	0.0772
ACCAAATG	-0.11
ACCCTAGT	-0.249
CGAAACAA	0.293
AAGAGCGA	-0.165
GCAATCCA	0.0488
GAAACTCA	0.231
CGGATAAG	0.217
CGTGGCCC	-0.147
AATCTCGA	0.0755
CGACTGCG	-0.121
GGGGTGCA	-0.136
ACCATATA	0.109
ACTCGGAA	0.341
TTCAGCAA	0.0984

Sequence	PBM E-score
ACAACCGC	0.116
TATCGGCA	0.213
CCCCAATC	-0.221
GGGCCCAC	-0.169
ACCGCTCA	0.0506
ATTTCGAC	-0.128
AATTTGAT	0.0532
CGTCGCTC	-0.0648
CGGGAGTA	0.199
GCAACAGC	-0.0717
ATGAGTAG	0.014
ACGTTGTC	-0.161
CGAGACAG	0.0103
GAAAGTTA	0.174
GACCTATC	-0.0806
CATGAGCG	-0.173
GCCCTAGA	-0.261
AATAAACT	0.163
AAGCACGC	0.0088
